The record followed here is PubChem BioAssay AID314 (DTP/NCI, 2004).

The list does not hold the whole screen: it is rich in T/C values a quarter to a half above the control, in often repeated tests (any T/C) and in doses without a T/C. Other doses and runs of a compound stand elsewhere. T/C: endpoint of the treated group in % of that of the vehicle group. Some entries give survivors of the animals treated and no T/C: the source files T/C as zero there, which appears to mark a toxic dose or a test without result, not a measured value. Some survivor counts are full or nearly so, which does not show that the dose was tolerated: the source hardly ever lists a survival T/C far under the control, and the zero likely stands for such cases as well. Survivors were counted at the toxicity check, usually on the fifth day, unless a day is given; later deaths do not show. Schedule codes are those of the source, read here as Q, the interval in days (D) or hours (H), X, the number of doses. Some entries hold several experiments; the values are given in rising order. Some molecules as drawn cover several salts, stereoisomers or complexes of the source; a dose is that of the sample tested. Where survival is the endpoint, the PubChem record calls one and a half times the control and up active, and a quarter to a half above the control has no call in these data; cut-offs in other NCI protocols can differ. Counts like (3×) say how often a value occurs here. Some T/C values are followed by the survivors on the day toxicity was checked, most often the fifth; where none is given, no animal had died by that day.

The experiment concerns DBA/2 mice, P1534 leukemia ip, survival T/C. The experiment in a line: NCI In Vivo Anticancer Drug Screen. Data for tumor model P1534 Leukemia (intraperitoneal) in DBA/2 mice. To be noted: T/C endpoint: mean survival time, higher T/C = longer survival. Here is the method: The antitumor activity of compounds was measured in mice bearing transplantable tumors. Survival or tumor size were measured and the results are expressed as the measurement made in the treated group (T) divided by the measurement made in the vehicle treated control group (C). The tumor model used in this assay is P1534 Leukemia (intraperitoneal) in DBA/2 mice

The mark [1] stands for this setting: dose: 50.0 mg/kg/injection, schedule: Q01DX010 (ip), vehicle: saline.
Where [2] appears, read: dose: 200.0 mg/kg/injection, schedule: Q01DX010 (ip), vehicle: saline.
The mark [3] stands for this setting: dose: 400.0 mg/kg/injection, schedule: Q01DX010 (ip), vehicle: saline.
The mark [4] stands for this setting: dose: 256.0 mg/kg/injection, schedule: Q01DX010 (ip), vehicle: saline.
[5] abbreviates: dose: 2.5 mg/kg/injection, schedule: Q01DX010 (ip), vehicle: saline.
[6] abbreviates: dose: 5.0 mg/kg/injection, schedule: Q01DX010 (ip), vehicle: saline.
Setting [7] is: dose: 10.0 mg/kg/injection, schedule: Q01DX010 (ip), vehicle: saline.
Setting [8] is: dose: 32.0 mg/kg/injection, schedule: Q01DX010 (ip), vehicle: saline.
Where [9] appears, read: dose: 7.5 mg/kg/injection, schedule: Q01DX010 (ip), vehicle: saline.
The mark [10] stands for this setting: dose: 15.0 mg/kg/injection, schedule: Q01DX010 (ip), vehicle: saline.
The mark [11] stands for this setting: dose: 12.5 mg/kg/injection, schedule: Q01DX010 (ip), vehicle: saline.
Setting [12] is: dose: 25.0 mg/kg/injection, schedule: Q01DX010 (ip), vehicle: saline.
[13] abbreviates: dose: 20.0 mg/kg/injection, schedule: Q01DX010 (ip), vehicle: saline.
[14] abbreviates: dose: 40.0 mg/kg/injection, schedule: Q01DX010 (ip), vehicle: saline.
The mark [15] stands for this setting: dose: 18.8 mg/kg/injection, schedule: Q01DX010 (ip), vehicle: saline.
The mark [16] stands for this setting: dose: 37.5 mg/kg/injection, schedule: Q01DX010 (ip), vehicle: saline.
[17] abbreviates: dose: 1000.0 mg/kg/injection, schedule: Q01DX010 (ip), vehicle: saline.
Where [18] appears, read: dose: 80.0 mg/kg/injection, schedule: Q01DX010 (ip), vehicle: saline.
[19] abbreviates: dose: 1.0 mg/kg/injection, schedule: Q01DX010 (ip), vehicle: saline.

Take `O=C1C(NC(=O)C2CCCCC2)=C(N2CC2)C(=O)C(NC(=O)C2CCCCC2)=C1N1CC1`: the survivor count is 6 of 6 under setting [1]; 6 of 6 (dose: 100.0 mg/kg/injection, schedule: Q01DX010 (ip), vehicle: saline); 6 of 6 under setting [2]; 0 of 6 under setting [3].
Take `CCCCn1cnc2c(=S)nc[nH]c21`: the survivor count under setting [4] was 6 of 6.
Turning to `Oc1cc(CN(CCCl)CCCl)c(O)cc1CN(CCCl)CCCl`, the T/C (dose: 1.25 mg/kg/injection, schedule: Q01DX010 (ip), vehicle: saline) was 128 % of control (2×). For the same compound, the survivor count is 6 of 6 under setting [5], 6 of 6 under setting [6] and 6 of 6 under setting [7].
On to `NC(Cc1ccc(N(CCCl)CCCl)cc1)C(=O)O` (stereo not drawn), for which the T/C under setting [5] is 126 % of control. The survivor count is, setting by setting: (dose: 4.0 mg/kg/injection, schedule: Q01DX010 (ip), vehicle: alkali diluted with saline) 6 of 6; under setting [6], 5 of 6; under setting [7], 6 of 6.
On to `CN(C)c1ccc(/C=C/c2ccnc3ccccc23)cc1`, for which the survivor count is 6 of 6 under setting [8]; 5 of 6 (dose: 64.0 mg/kg/injection, schedule: Q01DX010 (ip), vehicle: saline); 4 of 6 (dose: 128.0 mg/kg/injection, schedule: Q01DX010 (ip), vehicle: saline); 0 of 6 under setting [4].
Take `CC(=O)O[C@]1(C(C)=O)CC[C@H]2[C@@H]3C[C@H](C)C4=CC(=O)C=C[C@]4(C)[C@@]3(F)[C@@H](O)C[C@@]21C`: the survivor count (dose: 25.0 mg/kg/injection, schedule: Q01DX010 (sc), vehicle: steroid suspending solution) is recorded as 6 of 6; the survivor count (dose: 50.0 mg/kg/injection, schedule: Q01DX010 (sc), vehicle: steroid suspending solution) is recorded as 6 of 6; the survivor count (dose: 100.0 mg/kg/injection, schedule: Q01DX010 (sc), vehicle: steroid suspending solution) is on record as 5 of 6.
On to `N#CCSc1ncnc2nc[nH]c12`, for which the survivor count is recorded as 6 of 6 under setting [9]; 6 of 6 under setting [10]; 6 of 6 (dose: 30.0 mg/kg/injection, schedule: Q01DX010 (ip), vehicle: saline).
Consider `C[C@@H](N)[C@@H](O)c1ccccc1`, for which the survivor count is 6 of 6 (dose: 6.25 mg/kg/injection, schedule: Q01DX010 (ip), vehicle: saline); 5 of 6 under setting [11]; 5 of 6 under setting [12].
For the compound `C=C(C(=O)OC1CC2CCC(C1)N2C)c1ccccc1` (stereo not drawn), the survivor count is, setting by setting: under setting [7], 5 of 6; under setting [13], 0 of 6; under setting [14], 0 of 6.
As to `N=C(N)N`, the survivor count (dose: 424.0 mg/kg/injection, schedule: Q01DX010 (ip), vehicle: saline) is recorded as 0 of 6.
Regarding `CN[C@H]1CCc2cc(OC)c(OC)c(OC)c2-c2ccc(OC)c(=O)cc21`, the survivor count is given as 6 of 6 (dose: 1.57 mg/kg/injection, schedule: Q01DX010 (ip), vehicle: other); 6 of 6 (dose: 2.5 mg/kg/injection, schedule: Q01DX010 (ip), vehicle: other); 5 of 6 (dose: 3.13 mg/kg/injection, schedule: Q01DX010 (ip), vehicle: other); 6 of 6 (dose: 5.0 mg/kg/injection, schedule: Q01DX010 (ip), vehicle: other); 6 of 6 (dose: 6.25 mg/kg/injection, schedule: Q01DX010 (ip), vehicle: other); 4 of 6 (dose: 12.5 mg/kg/injection, schedule: Q01DX010 (ip), vehicle: other).
`CN(C)c1nc(N(C)C)nc(N(C)C)n1`: the T/C by setting is: under setting [15], 88, 96, 103 % of control; under setting [16], 92 [5 of 6 alive], 96, 107 % of control; (dose: 75.0 mg/kg/injection, schedule: Q01DX010 (ip), vehicle: saline) 100 (2×), 103, 107 % of control. For the same compound, the survivor count under setting [15] was 6 of 6 and the survivor count under setting [16] is 6 of 6.
Regarding `Nc1nncs1`, the T/C was 100 (2×), 103, 107 % of control (dose: 1.88 mg/kg/injection, schedule: Q01DX010 (ip), vehicle: saline); 100 (3×) and 103 % of control (dose: 3.75 mg/kg/injection, schedule: Q01DX010 (ip), vehicle: saline); 100, 107 (2×), 111 % of control [5 of 6 alive] under setting [9]. Besides, the survivor count under setting [10] is 6 of 6.
Consider `c1ccc(CCSc2ncnc3nc[nH]c23)cc1`, for which, under setting [17], the survivor count is given as 3 of 6.
For the compound `COc1ccc2[nH]c3c(C)c4ccncc4c(C)c3c2c1`, the survivor count runs as follows: under setting [13], 6 of 6; under setting [14], 6 of 6; under setting [18], 6 of 6; (dose: 160.0 mg/kg/injection, schedule: Q01DX010 (ip), vehicle: saline) 6 of 6.
`O=C(O)c1[nH]c(=O)[nH]c(=O)c1F`: the survivor count under setting [5] was 6 of 6; the survivor count under setting [6] was 5 of 6; the survivor count under setting [7] was 6 of 6; the survivor count under setting [13] is 6 of 6; the survivor count under setting [14] is reported as 6 of 6.
`CSc1ncnc2nc[nH]c12`: the survivor count is, setting by setting: under setting [11], 6 of 6; under setting [12], 6 of 6; under setting [1], 5 of 6 and 6 of 6.
In the case of `O=c1[nH]c(=O)n(C2CC(O)C(CO)O2)cc1I` (stereo not drawn), under “dose: 250.0 mg/kg/injection, schedule: Q01DX010 (ip), vehicle: saline”, the T/C was 125 % of control. Moreover, the survivor count is recorded as 6 of 6 under setting [17] and 4 of 6 (dose: 2000.0 mg/kg/injection, schedule: Q01DX010 (ip), vehicle: saline).
Take `OC(CBr)C(O)C(O)C(O)CBr` (stereo not drawn): the survivor count runs as follows: under setting [1], 6 of 6; under setting [2], 6 of 6; under setting [3], 4 of 6.
Turning to `CC1CCOS(=O)O1` (stereo not drawn), the survivor count by setting is: under setting [14], 6 of 6; under setting [18], 5 of 6.
Take `CN(Cc1cnc2nc(N)nc(N)c2n1)c1c(Cl)cc(C(=O)NC(CCC(=O)O)C(=O)O)cc1Cl` (stereo not drawn): the survivor count under setting [6] is 6 of 6; the survivor count under setting [7] was 6 of 6; the survivor count under setting [13] is listed as 6 of 6; the survivor count under setting [14] was 6 of 6; the survivor count under setting [18] is on record as 5 of 6. In addition, the T/C under setting [7] is 125 % of control.
As to `O[C@H](CN1CC1)[C@@H](O)CN1CC1`, the T/C (dose: 0.12 mg/kg/injection, schedule: Q01DX010 (ip), vehicle: saline) was 142 % of control. In addition, the survivor count (dose: 0.5 mg/kg/injection, schedule: Q01DX010 (ip), vehicle: saline) was 6 of 6 and the survivor count under setting [19] is given as 6 of 6.
On to `C1CCNC1`, for which, for the setting “dose: 0.78 mg/kg/injection, schedule: Q01DX010 (ip), vehicle: saline”, the survivor count is listed as 6 of 6.
For `CSc1ncnc2c1ncn2C1OC(CO)C(O)C1O` (stereo not drawn), the survivor count under setting [8] is 5 of 6 and 6 of 6.
For the compound `S=P(N1CC1)(N1CC1)N1CC1`, the survivor count under setting [19] is on record as 6 of 6.
